Data taken from patent publication US20100041074A1.
No constants are given. Whether binding was seen depends on the method and setting. Some entries that bind do so weakly or less than the wild type.

By UniProt entry, the sequences of proteins in these tests, tags left out. Where a name states a change or a piece, a line headed by the entry shows the natural chain unless it says otherwise.
UniProt P11021: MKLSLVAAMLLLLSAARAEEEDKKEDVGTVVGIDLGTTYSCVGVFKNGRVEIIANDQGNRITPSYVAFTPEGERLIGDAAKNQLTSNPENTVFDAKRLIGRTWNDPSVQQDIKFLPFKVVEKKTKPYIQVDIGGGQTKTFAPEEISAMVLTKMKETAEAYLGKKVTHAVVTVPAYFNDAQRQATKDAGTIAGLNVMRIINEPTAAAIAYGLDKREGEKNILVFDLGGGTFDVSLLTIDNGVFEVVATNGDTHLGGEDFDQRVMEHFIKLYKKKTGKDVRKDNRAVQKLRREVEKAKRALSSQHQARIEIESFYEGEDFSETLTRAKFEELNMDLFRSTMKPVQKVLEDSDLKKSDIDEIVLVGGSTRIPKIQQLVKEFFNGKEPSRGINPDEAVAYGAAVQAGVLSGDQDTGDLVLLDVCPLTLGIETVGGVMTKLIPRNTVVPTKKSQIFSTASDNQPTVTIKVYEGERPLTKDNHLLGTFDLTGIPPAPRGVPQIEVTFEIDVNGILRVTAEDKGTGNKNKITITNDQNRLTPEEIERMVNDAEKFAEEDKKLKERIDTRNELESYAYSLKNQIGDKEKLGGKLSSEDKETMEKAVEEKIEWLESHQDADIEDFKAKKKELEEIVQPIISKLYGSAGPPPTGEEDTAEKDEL

Experiments:
[1] = target: GRP78 protein (amino acids 19-654) purified from E. coli (human) (UniProt P11021); assay: ELISA, plate coated with GRP78 protein purified from E. coli, hybridoma culture supernatant
[2] = target: GRP78 localized on the cell surface of human cancer cells (human) (UniProt P11021); assay: FACS on DU145 cells, antibody 10 µg/ml
[3] = target: GRP78 expressed in human cells (cell lysate) (human) (UniProt P11021); assay: western blot, DU145 cell lysate, antibody 2 µg/ml
[4] = target: GST-GRP78 (376-415) (human); assay: western blot of GST fused GRP78 fragments (345-385, 376-415, 406-445)
[5] = target: GRP78 localized on the cell surface of human cancer cells (human) (UniProt P11021); assay: FACS on DU145 cells
[6] = target: GST fused GRP78 protein (GST-GRP78) purified from E. coli (human) (UniProt P11021); assay: western blot, GST fused GRP78 protein (0.1 ug), antibody 2 µg/ml

- binding [1]: binds
- binding [2]: binds
- binding [3]: binds
- binding [4]: binds
- binding [5]: binds
- binding [6]: binds
B1: GA-21 antibody (antibody, IgG3, V domains shown)
VH: QVQLKQSGPGLVQPSQSLSITCTVSGFSLTSYGVHWVRQSPGKGLEWLGVIWSGGSTDYNEAFISRLSISKDNSKSQVFFKMNSLQANDTAIYYCARNWDYWGQGTTLTVSS
VL: DIVMSQSPSSLAVSAGEKVTMSCKSSQSLLNSRTRKNYLAWYQQKPGQSPKLLIYWASTRESGVPDRFTGSGSGTDFTLTISSVQAEDLAVYYCKQSYNLRTFGGGTKLEIK
